# The whole screen tested about 210,000 compounds, of which about 5,900 (2.8%) were called active. Inconclusive results (about 5%) are left out. Calls follow the shape of the dose curve; as a rule, active = well fitted activation curve with a large enough effect; inconclusive = small, poorly fitted or top-dose-only effect; inactive = no such curve, though single readings can be large or run the other way. Only a part is listed here, and it is no random draw. The source gives no active or inactive call for entries shown without one.
# Assay: qHTS Assay for Enhancers of SMN2 Splice Variant Expression; also: nearly all actives have a fitted effect of over 55% in size; as to activity change, positive = activation: % of control where 0% means no effect
# Details: HEK293 SMN2-luciferase splicing reporter, luminescence, 30-36 h; activity change, positive = activation: at 46.1 µM (top of the series) unless noted
# Method in brief: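 qHTS luciferase splicing reporter: luminescence rises when SMN2 exon 7 is included in transfected HEK293 cells. Compound exposure lasted 30-36 h at 37C, with 4.5 mM final sodium butyrate as control, followed by a ONE-Glo read.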
# Potency is read from the fitted curve at half-maximal effect.
SMILES,"activity change, positive = activation",Potency
Cn1c(=O)c2c(c3ccccc31)OC(C)(C)CC2,51.3%,
Cc1ccc(-c2cn3cccnc3n2)cc1,40%,
Cc1ccc(C(=O)NCCNS(C)(=O)=O)cc1,37.4%,
CCOc1ccc(/C=N/N(C)c2ccccc2)cc1OC,,active: 25.1 µM
C#CCNC(=O)/C=C/c1ccc(C)cc1,,active: 12.6 µM
COc1ccc(C(O)(CCc2ccccc2)CCN2CCCCC2)cc1 (centres undefined),inactive: -66.6%,
C=CCNc1ncnc2c1[nH]c1ccc(C)cc12,,active: 2.82 µM
Cc1nnc2c(-c3ccccc3)nc3ccccc3n12,30.8%,
CCNc1nc(N)c(C(=O)c2ccc(Cl)s2)s1,,active: 20 µM
CCOC(CCn1c(SCc2cccc([N+](=O)[O-])c2)nc2ccccc2c1=O)OCC,inactive: -35.4%,
Cc1cc(NC(=O)CCCSc2nc(-c3ccco3)cc(C(F)(F)F)n2)n(-c2ccccc2)n1,inactive: -40.6%,
Cc1nc2ccccc2c(=O)n1NC(=O)c1c(O)c2ccccc2n(C)c1=O,-53.8%,
CC(C)Oc1ccc(C(=O)Nc2cccc3cccnc23)cc1,31.4%,
CCOc1ccc2nc(NS(C)(=O)=O)sc2c1,,active: 14.1 µM
Cc1sc(=NC(=O)c2ccco2)n(C)c1-c1ccccc1,,active: 2.24 µM
COc1ccc(CNC(=O)C2CCCN(S(=O)(=O)c3c(C)n[nH]c3C)C2)cc1 (centres undefined),19.7%,
Cc1ccc(S(=O)(=O)N(C)CC(=O)Nc2nc3ccccc3s2)cc1,-40.4%,
N/C(=N\OC(=O)COc1ccc(Br)cc1Cl)c1cccnc1,,active: 17.8 µM
CCCN1CCN(C(=S)Nc2ccc3nc(N4CCN(CC)CC4)cc(C)c3c2)CC1,43.9%,
Cc1cc(NC(=O)c2ccc(Cn3nc(C)c(Br)c3C)o2)no1,,active: 20 µM
CC(C)(C)NS(=O)(=O)c1ccc(CCC(=O)Nc2cc(Cl)ccc2Oc2ccccc2)cc1,-71.5%,
Cc1ccc(P(=Nc2ccccc2)(N2CCOCC2)N2CCOCC2)o1,50.5%,

SMILES,"activity change, positive = activation",Potency
CCOc1ccc(NC(=O)c2cc3c(C)nc4ccccc4c3o2)cc1,inactive: -32.5%,
CCCNC(=O)Nc1nccs1,inactive: -15.8%,
CCn1nnc(NC(=O)c2ccc(C(C)(C)C)cc2)n1,117%,
O=C(Nc1ccc(S(=O)(=O)N2CCCCC2)cc1)C1CCCN(C(=O)c2ccc(Cl)cc2)C1 (centres undefined),-64.2%,
COC(=O)c1sccc1NC(=O)C1C2C=CC(O2)C1C(=O)O (centres undefined),28.8%,
CCOc1ccccc1NS(=O)(=O)c1cccc2nsnc12,31.2%,
Cc1ccc(OCCSc2nc(N)cc(N)n2)cc1,66.8%,
COc1cc2nc(SCC(=O)NCCc3ccccc3)n(Cc3ccco3)c(=O)c2cc1OC,34.8%,
C=C(C)c1cccc(C(C)(C)NC(=O)N2CCCC(C)C2)c1 (centres undefined),-37.8%,
Cn1cnnc1SCC(=O)NNC(=O)COc1ccc(Br)cc1,30%,
Oc1ccccc1-c1cc(-c2ccccc2Cl)[nH]n1,,active: 3.55 µM
COc1cc(OC)c(NC(=O)Cn2ncn3c(cc4cc(C)ccc43)c2=O)cc1Cl,42.9%,
COc1ccc(CNC(=O)C2CCN(S(=O)(=O)c3cc(OC)ccc3OC)CC2)cc1,25.7%,
COc1cc(-c2nn3c(-c4cccc(C)c4)nnc3s2)cc(OC)c1OC,22.2%,
COC(=O)C(C)N1C(=O)S/C(=C\c2cc(C)n(-c3ccccn3)c2C)C1=O (centres undefined),inactive: -58.7%,
Cc1nc2nc(CNC(=O)c3cccc(F)c3)nn2c(C)c1CCC(=O)Nc1cccc(Cl)c1,-31.6%,
COc1ccc(C2CCCN2C(=S)Nc2cccc(Cl)c2C)cc1OC (centres undefined),inactive: -80.3%,
Cc1[nH]c2c(Br)cccc2c1[C@H]1[C@@H](CC#N)C1(C)C,-31.4%,
COC(=O)C1C(=O)c2c([nH]c(C(=O)OC3CCCC3C)c2C)CC1C (centres undefined),,active: 11.2 µM
O=C(Nc1cccc2ccccc12)c1ccc(Br)o1,32.1%,
COc1ccc(/C=C(\C#N)C(=O)OCC(=O)Nc2ccc(C(C)(C)C)cc2)cc1,26.5%,
CC(=O)c1cc2c(cc1NC(=O)c1ccc(C)cc1)OCO2,33.1%,

# A few values from the entries so far.
# O=C(Nc1cccc2ccccc12)c1ccc(Br)o1 – activity change, positive = activation: 32.1%
# COC(=O)C(C)N1C(=O)S/C(=C\c2cc(C)n(-c3ccccn3)c2C)C1=O (centres undefined) – activity change, positive = activation: inactive: -58.7%

# More compounds.

SMILES,"activity change, positive = activation",Potency
CC(C(=O)NCC1(c2ccccc2)CCCC1)N1CCOCC1 (centres undefined),36.7%,
COc1ccccc1C(=O)NC(=S)NNC(=O)c1sc2ccccc2c1Cl,-67.8%,
COc1ccc(-c2noc(CSc3nc4ccc(C)cc4[nH]3)n2)cc1,inactive: -46.7%,
CC1CCN(c2nc3ccc(C(=O)NC(C)C)cc3s2)CC1,,active: 0.794 µM
Cc1ccc(NC(=S)NCc2ccc3[nH]c4c(c3c2)CCCC4)cc1,-23.9%,
CCN(CC)CCn1c(=N)n(CC(O)COc2cccc(C)c2)c2ccccc21 (centres undefined),inactive: -92%,
COc1cccc(C(=O)Nc2cccc(C(C)=O)c2)c1,88.7%,
O=C(C[n+]1cccc2ccccc21)c1ccccc1,22.3%,
COc1ccc(/C=C/C(=O)C23CC4CC(CC(C4)C2)C3)cc1CN1CCOCC1,inactive: -55.7%,
CS(=O)(=O)Nc1ccc(C(=O)NCCc2ccccc2)cc1,,active: 11.2 µM
CCOC(=O)CCc1c(C)c2ccc(OCC(=O)N(CC)CC)c(C)c2oc1=O,27.4%,
NC(=O)Nn1c(CCC(=O)O)ccc1-c1ccc(Br)cc1,32.5%,
Cc1ccc(OCc2nnc(SCC(=O)Nc3cc(C)on3)n2C)cc1,15%,
Cc1ccc(NC(=O)C2=C(c3ccccc3)S(=O)(=O)CCS2(=O)=O)cc1,inactive: -44.9%,
C=CCOc1ccc(/C(CC)=N/O)c(OC)c1,54.6%,
O=C(CN(C(=O)CNS(=O)(=O)c1ccccc1)C1CCCC1)NCC1CCCO1 (centres undefined),33.9%,
CC(C)(C)NC(=S)Nc1ccc(Nc2ccccc2)cc1,inactive: -36.1%,
O=C(NCCc1ccc(F)cc1)c1ccc([N+](=O)[O-])cc1,,active: 11.2 µM
COc1ccc(-c2ccc(-c3nc4c(c(=O)[nH]c(=O)n4Cc4ccccc4)n3C)o2)c([N+](=O)[O-])c1,-54.5%,
O=S(=O)(NCCc1csc(-c2cccnc2)n1)c1ccc(Cl)s1,inactive: -37%,
COCCCNS(=O)(=O)c1ccc(Oc2ncc(C(F)(F)F)cc2Cl)cc1,inactive: -67.4%,
CCOC(=O)C1CCCN(CCC(=O)Nc2ccc(F)c(F)c2)C1 (centres undefined),46.2%,

# Among those listed so far, 2 have a cyano group.
SMILES,"activity change, positive = activation",Potency
Cc1[nH]c2c(Br)cccc2c1[C@H]1[C@@H](CC#N)C1(C)C,-31.4%,
COc1ccc(/C=C(\C#N)C(=O)OCC(=O)Nc2ccc(C(C)(C)C)cc2)cc1,26.5%,

# Carrying on:

SMILES,"activity change, positive = activation",Potency
CCOc1cc(S(=O)(=O)NCc2cccs2)ccc1Cl,26.2%,
CC1CN/C(=C\C(=O)c2ccc(Br)cc2)C(=O)N1 (centres undefined),-42.3%,
CN1CCc2c(sc3nc(SCC(N)=O)n(-c4ccccc4)c(=O)c23)C1,74.4%,
CC1CCCN(C(=O)c2ccc(CSc3nc4ccncc4n3Cc3ccccc3)cc2)C1 (centres undefined),inactive: -32.6%,
Cc1nc(NC(=O)C2CCCCC2)sc1C,,active: 20 µM
Cc1ccc(S(=O)(=O)Nc2ccccc2CNc2ccccn2)cc1,inactive: -13.4% [at 1.84 µM],
CCCN(CC1CC1)C(=O)Nc1ccccc1C,41.1%,
Cc1ccc(N=Nc2ccc(O)c3ncccc23)cc1C,-33.1%,
COc1ccc(CCn2c(C)cc(C(=O)CSc3nc(N)cc(=O)[nH]3)c2C)cc1,-48.9%,
O=C(Cc1cccs1)Nc1ccccc1C(=O)O,,active: 10 µM
Clc1ccccc1CSc1ncccn1,45.1%,
COC(=O)c1ccc(CSc2nc3ccccc3c(=O)n2Cc2ccco2)o1,-64.9%,
O=C(Nc1nc2cc3c(cc2s1)OCCO3)c1cccc(S(=O)(=O)N2CCOCC2)c1,inactive: -46.1%,
CCOC(=O)c1sc(=NC(=O)c2cccs2)n(C)c1C,,active: 3.16 µM
O=C1/C(=C/N(C(=O)c2ccco2)c2ccc(Br)cc2)Sc2ccccc21,137%,
CCOC(=O)c1ccc(Oc2c(C)oc3cc(OS(C)(=O)=O)ccc3c2=O)cc1,-49.3%,
Cc1cc(C)c(C2=NOC3C4CCC(C4)C23)c(C)c1 (centres undefined),inactive: -34.4%,
N#CC(C(N)=O)=C1CCC2(CC1)OCCCCO2,22.9%,
Cc1cccc(C(=O)NCCc2csc(C)n2)c1,,active: 1.58 µM
O=C(CNC(=O)C1CCCCC1)Nc1ccc(Cl)cc1,,active: 11.2 µM
CCOC(=O)c1c(NC(=O)CSc2nncs2)sc(C)c1-c1ccccc1,-54.1%,
CCOC(=O)c1cnc(-c2ccccc2)nc1N,,active: 7.08 µM

SMILES,"activity change, positive = activation",Potency
O=C(CC1CCCCC1)c1c(O)c2ccccc2oc1=O,-58.3%,
CCSc1ncc(/C=N/Nc2ccc(Cl)cc2)n1C,,active: 20 µM
COc1ccc(S(=O)(=O)Nc2ccc(F)cc2)cc1N(C)S(=O)(=O)c1ccc(Cl)cc1,-51%,
O=C(Nc1nc2ccccc2[nH]1)c1ccccc1F,-48.7%,
CC1=CC(C2CC(=O)N(c3ccccc3C)C2=O)CC2C(=O)N(c3ccccc3C)C(=O)C12 (centres undefined),7.04%,
O=c1c2ccccc2cnn1CCOc1ccccc1,-71.2%,
COC(=O)C(NC(C)=O)(Nc1ccccc1)C(=O)OC,46.3%,
Cc1cc(C)c2nc(NNC(=O)c3ccc(S(=O)(=O)N4CCc5ccccc5C4)cc3)sc2c1,inactive: -116%,
COc1ccccc1NC(=O)c1ccc(NC(=O)c2cc3c(s2)CCC3)cc1,inactive: -33.5%,
COc1cccc(CNC(=O)c2ccccc2N)c1,40.6%,
Cc1ccc(C(=O)OCn2ncc(Cl)c(Cl)c2=O)cc1,-74.1%,
COc1ccc2nc(N=Nc3c(O)ccc4ccccc34)sc2c1,-91.1%,
COc1ccc(NC2=CC(=O)CC(c3ccccc3)C2)c(OC)c1 (centres undefined),16%,
CCOc1ccc(-n2cnnn2)cc1S(=O)(=O)NCCc1ccc(OC)c(OC)c1,30.2%,
NS(=O)(=O)c1ccc(CNC(=S)NCc2ccc(Cl)cc2)cc1,inactive: -30.4%,
COc1cc(C(=O)N/N=C/c2ccc(OC)c(CN3CCN(c4ccc(F)cc4)CC3)c2)ccc1O,-18.2%,
O=C(Nc1ccc(Cl)c(Cl)c1)C1CC(=O)N(c2ccc(Br)cc2)C1 (centres undefined),inactive: -78.8%,
COc1ccc(S(=O)(=O)N2CCCCC2)cc1NC(=O)c1ccc([N+](=O)[O-])o1,inactive: -40.1%,
O=C(CSc1nnc2c(n1)[nH]c1ccccc12)Nc1ccc2c(c1)OCO2,inactive: -47.8%,
Cc1cccc(NC(=O)c2cnc3scc(C)n3c2=O)c1,,active: 12.6 µM
CN(C)c1cccc(C(=O)OCC(=O)N(Cc2ccccc2)C2CCS(=O)(=O)C2)c1 (centres undefined),104%,

# — PubChem BioAssay AID1458 (National Center for Advancing Translational Sciences (NCATS), 2008)
